This is one part of the list. These are further read-outs of the screen, such as a control signal, another cell line or another target. No call is given for them. Compounds called inactive in the main read-out are mostly missing here. The note in brackets gives the kind of curve behind each potency; many fits are weak.
Assay: qHTS Assay for Lipid Storage Modulators in Drosophila S3 Cells;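 for cell number change: cells counted by Cell Tracker Red CMTPX staining in the red channel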
Conditions: BODIPY lipid droplet fluorescence, 18-24 h; for cell number change: measured here: cell count max response, cells fed with added oleic acid
In short: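 Drosophila S3 cells got compounds at several concentrations plus oleic acid (400 uM solution). Laser-scanning cytometry with 488 nm excitation read lipid droplets at 500-530 nm and cells at 575-640 nm. Percent activity was relative to 20 uM Triacsin C.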

[1] = measured here: lipid fluorescence (Fed channel) AC50, cells fed with added oleic acid
[2] = measured here: cell number channel AC50, cells fed with added oleic acid

| Compound | cell number change [%] | AC50 [1] | AC50 [2] |
| --- | --- | --- | --- |
| O=C(CCCN1C(=O)/C(=C/c2ccccc2)SC1=S)NCCCn1ccnc1 | 0.472 | 2.91 µM [falling, single point] | – |
| CN(C)/C=C/C(=O)c1ncc(C(F)(F)F)cc1Cl | -44.6 | 1.3 µM [falling, full curve] | 0.231 µM [falling, full curve, poor fit] |
| O=C(O)c1cc(-c2ccc(/C=N/NC(=S)Nc3ccccc3)o2)ccc1Cl | 19.1 | – | 6.51 µM [falling, single point] |
| COc1cccc(NC(=O)CN2CCSc3ccccc32)c1 | 13.9 | – | 4.11 µM [rising, single point] |
| COc1ccc(CNC(=O)C2CCC(=O)N(CCCN3CCCC3=O)C2)cc1 (centres undefined) | 24.6 | 29.1 µM [rising, single point] | – |
| CC(C)(C)S(=O)(=O)c1cnc2c(S(=O)(=O)c3ccccc3)cnn2c1N | 6.26 | – | – |
| CCC(=O)Nc1cc(C(=O)NCC2CCCN2CC)c(OC)cc1N(C)C (centres undefined) | – | 3.66 µM [falling, single point] | – |
| COc1ccccc1N(C(=O)c1ccco1)C(C(=O)NC1CCCC1)c1cccnc1 (centres undefined) | 31.4 | – | 3.26 µM [rising, partial curve] |
| O=C(COc1ccc([N+](=O)[O-])cc1)N(C1CCCCC1)C1CCS(=O)(=O)C1 (centres undefined) | 45.4 | – | 25.9 µM [rising, single point] |
| O=C1/C(=N\S(=O)(=O)c2cccs2)C([n+]2cccc(Cc3ccccc3)c2)=C([O-])c2ccccc21 | – | 16.4 µM [falling, partial curve] | – |
| COc1cccc(C(=O)CC(=O)C(=O)Nc2cc(OC)ccc2OC)c1 | 5.85 | 0.651 µM [rising, full curve] | – |
| c1ccc(-c2nnc(CSc3nncs3)o2)cc1 | 315 | 29.1 µM [rising, partial curve] | 29.1 µM [rising, partial curve] |
| COC(=O)c1cccc(S(=O)(=O)N(Cc2ccco2)Cc2cc3cc(OC)c(OC)cc3[nH]c2=O)c1 | -0.483 | 1.64 µM [rising, full curve] | 1.64 µM [rising, partial curve] |
| Nc1nc(SCc2ccc(Cl)cc2Cl)ns1 | -51.1 | 29.1 µM [falling, single point] | 29.1 µM [falling, single point] |
| COc1ccc(/C=N/n2cc(-c3ccccc3)nc2N)cc1 | – | 0.13 µM [rising, full curve, poor fit] | – |
| CCSc1nnc(NC(=O)CN2C(=O)N(C)C3(CCCCC3)C2=O)s1 | – | 4.11 µM [falling, single point] | 5.8 µM [falling, single point] |
| Cc1nonc1OCCNc1ccc([N+](=O)[O-])cc1 | -10.8 | 20.6 µM [rising, partial curve, poor fit] | – |
| NC(=O)N/N=C1\CCS(=O)(=O)c2ccc(F)cc21 | 32.6 | 29.1 µM [rising, single point] | 0.00517 µM [rising, full curve, poor fit] |
| O=Cc1ccc(OCc2nnsc2Cl)cc1 | -10 | 4.11 µM [falling, full curve, poor fit] | – |

| Compound | cell number change [%] | AC50 [1] | AC50 [2] |
| --- | --- | --- | --- |
| NC(=O)COC(=O)CNC(=O)c1ccc(Cl)cc1 | -16.8 | 0.00461 µM [falling, full curve, poor fit] | – |
| C=CCNc1nnnc2c1sc1nc(N3CCOCC3)c3c(c12)CCCC3 | 8.42 | 3.26 µM [rising, partial curve, poor fit] | – |
| O=C(NCc1ccco1)c1ccc([N+](=O)[O-])cc1Cl | 28.2 | 29.1 µM [rising, single point] | – |
| Cn1c(=O)c(NCCc2ccccc2)c2c3c(cccc31)C(=O)c1ccccc1-2 | -99.8 | – | – |
| O=C(NCCSc1ccccc1)c1ccccc1 | 9.06 | 16.4 µM [rising, single point] | – |
| Cc1ccc(N=C2NC(=O)c3cc([N+](=O)[O-])ccc32)cc1 | 11.4 | 20.6 µM [rising, partial curve, poor fit] | – |
| CCOC(=O)C1=NOC(C(=O)NN(C)c2ncc(C(F)(F)F)cc2Cl)C1 (centres undefined) | -39.5 | 23.1 µM [falling, single point] | 13 µM [falling, partial curve, poor fit] |
| Fc1ccccc1CSc1nnc(Cn2cnc3ccccc32)n1-c1ccccc1 | -11.1 | 1.16 µM [falling, partial curve] | – |
| O=C(CSc1nnc(C2COc3ccccc3O2)o1)N1CCCC1 (centres undefined) | – | 0.146 µM [falling, full curve, poor fit] | 0.92 µM [falling, full curve] |
| CC(C)C(=O)Nc1nnc(-c2ccccc2)o1 | -21.8 | 2.06 µM [falling, partial curve, poor fit] | – |
| N#Cc1c(-c2ccccc2)[nH]c(=S)[nH]c1=O | -25.8 | 0.259 µM [falling, full curve, poor fit] | – |
| CN(C)c1ccc(CNC(=O)c2cc(S(=O)(=O)N3CCCC3)cn2C)cc1 | 6.63 | – | – |
| O=C(Nc1ccc(N2CCN(C(=O)c3ccco3)CC2)cc1)c1cccc(F)c1 | -22.4 | 9.2 µM [falling, partial curve, poor fit] | – |
| CC(C)(C)NC(=O)NC(=O)CSc1n[nH]c(-c2ccccc2Br)n1 | 18.1 | – | – |
| Cc1cccc(-n2cc3c(=O)n(C)c(=O)n(C)c3c2)c1 | -3.62 | – | – |
| COc1cccc(-n2nnnc2SCC(=O)Nc2cccc(C)n2)c1 | -7.19 | – | – |
| O=C(CN1C(=O)NC2(CCc3ccccc32)C1=O)NCCc1ccccc1 (centres undefined) | 0.979 | 6.51 µM [falling, single point] | – |
| C=C(C)COc1ccc2c(C)c(CCC(=O)N3C[C@H]4C[C@@H](C3)c3cccc(=O)n3C4)c(=O)oc2c1 | 14.9 | 0.58 µM [rising, single point] | – |
| Cc1cccc(NC(=S)NNC(=O)c2ccccc2Br)c1 | -22.8 | 6.51 µM [falling, single point] | 1.3 µM [falling, single point] |

One compound at a time (already shown):
O=C(NCc1ccco1)c1ccc([N+](=O)[O-])cc1Cl as listed: cell number change [%]: 28.2; AC50 [1]: 29.1 µM [rising, single point]
N#Cc1c(-c2ccccc2)[nH]c(=S)[nH]c1=O as listed: cell number change [%]: -25.8; AC50 [1]: 0.259 µM [falling, full curve, poor fit]

Source: PubChem BioAssay AID2685 (National Center for Advancing Translational Sciences (NCATS), 2010)
